Patent US20160185859A1 (Pfizer, published 2016)
No constants are given. Whether binding was seen depends on the method and setting. Some results given as binding are weak or reduced against the parent protein; the word gives no strength.

T1: human 5T4 antigen (human, UniProt Q13641 32-355, limits assumed)
T1 sequence: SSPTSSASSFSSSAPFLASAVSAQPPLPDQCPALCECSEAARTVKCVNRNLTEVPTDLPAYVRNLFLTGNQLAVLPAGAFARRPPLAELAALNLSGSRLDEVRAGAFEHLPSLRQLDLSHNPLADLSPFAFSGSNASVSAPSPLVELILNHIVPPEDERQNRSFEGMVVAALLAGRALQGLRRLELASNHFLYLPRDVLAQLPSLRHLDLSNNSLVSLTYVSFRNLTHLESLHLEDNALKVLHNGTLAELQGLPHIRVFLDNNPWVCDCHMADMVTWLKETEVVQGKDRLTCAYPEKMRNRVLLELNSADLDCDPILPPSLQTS


Key:
human 5T4 antigen [1] = biological target: T1, human 5T4 antigen; assay: BIACORE; CM5 chip with bound human 5T4 antigen
human 5T4 antigen [2] = biological target: T1, human 5T4 antigen; assay: ELISA; 5T4 ectodomain Fc constructs and 5T4 chimeras
human 5T4 antigen [3] = biological target: T1, human 5T4 antigen; assay: BIACORE (SPR); human 5T4 antigen immobilized on CM5 chip

binding (human 5T4 antigen [1]) | binding (human 5T4 antigen [2]) | binding (human 5T4 antigen [3]) | Binder
binds | binds | binds | murine anti-5T4 antibody A2 (antibody, V domains shown, also called muA2) VH: QVQLQQSRPELVKPGASVKMSCKASGYTFTDYVISWVKQRTGQGLEWIGEIYPGSNSIYYNEKFKGRATLTADKSSSTAYMQLSSLTSEDSAVYFCAMGGNYGFDYWGQGTTLTVSS VL: QIVLTQSPAIMSASLGERVTLTCTASSSVNSNYLHWYQQKPGSSPKLWIYSTSNLASGVPARFSGSGSGTSYSLTISSMEAEDAATYYCHQYHRSPLTFGAGTKLELK
– | – | binds | chimeric A2 antibody (antibody, human IgG4, V domains shown, also called ChiA2; ChiA2 γ4) VH: QVQLQQSRPELVKPGASVKMSCKASGYTFTDYVISWVKQRTGQGLEWIGEIYPGSNSIYYNEKFKGRATLTADKSSSTAYMQLSSLTSEDSAVYFCAMGGNYGFDYWGQGTTLTVSS VL: QIVLTQSPAIMSASLGERVTLTCTASSSVNSNYLHWYQQKPGSSPKLWIYSTSNLASGVPARFSGSGSGTSYSLTISSMEAEDAATYYCHQYHRSPLTFGAGTKLELK
